The other results are listed elsewhere or left out.
Experiments:
Assay in all cases: log2 fold change, soluble protein after heating vs DMSO (PISA); higher = thermal stabilisation; K562 cells, 10 uM, 30 min; active = over 0.2 and 3.5 SD of the protein, either way, in both replicates (recomputed)
[1] = compound: NC(=O)Nc1cc(-c2cccc(F)c2)sc1C(=O)N[C@H]1CCCNC1
In short: (§1)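 K562 cells at 2×10^6 cells/mL were treated for 30 min with 10 μM compound, and aliquots were heated for 3 min over 48°C-58°C before pooling. Extraction used PBS with 0.5% NP-40 at 4°C, and soluble protein was the supernatant after 21,000xg for 90 min, measured by TMTpro 16plex LC-MS/MS with channel sums equalised. Thermal stability values, relative to control samples and from duplicates, are log2 fold changes.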

Protein sequences, listed by entry. Tags and fused reporters are not part of them. Lines headed by an entry give the natural chain unless they say otherwise; changes in a name come on top.
UniProt Q96SZ5, whole entry, looked up: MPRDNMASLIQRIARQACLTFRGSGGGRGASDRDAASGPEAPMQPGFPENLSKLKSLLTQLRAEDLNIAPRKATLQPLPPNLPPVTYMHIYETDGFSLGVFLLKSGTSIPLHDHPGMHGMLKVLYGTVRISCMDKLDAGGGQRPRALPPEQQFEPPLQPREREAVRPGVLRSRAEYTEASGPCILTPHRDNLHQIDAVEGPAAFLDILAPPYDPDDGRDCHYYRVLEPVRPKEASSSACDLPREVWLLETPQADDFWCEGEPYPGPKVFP
UniProt P31749: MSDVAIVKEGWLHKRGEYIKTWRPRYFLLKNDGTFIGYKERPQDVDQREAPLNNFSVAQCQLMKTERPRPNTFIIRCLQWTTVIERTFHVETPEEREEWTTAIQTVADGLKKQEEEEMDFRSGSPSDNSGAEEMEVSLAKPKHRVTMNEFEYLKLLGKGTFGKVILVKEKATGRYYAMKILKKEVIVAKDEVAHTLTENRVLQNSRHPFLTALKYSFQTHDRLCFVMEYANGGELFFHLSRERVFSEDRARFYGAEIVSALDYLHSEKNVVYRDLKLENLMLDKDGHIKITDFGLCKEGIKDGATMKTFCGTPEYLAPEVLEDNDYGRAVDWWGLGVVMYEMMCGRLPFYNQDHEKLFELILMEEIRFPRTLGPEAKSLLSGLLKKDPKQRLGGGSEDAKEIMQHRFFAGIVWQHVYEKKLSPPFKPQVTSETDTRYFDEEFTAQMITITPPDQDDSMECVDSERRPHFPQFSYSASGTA
UniProt Q9Y672: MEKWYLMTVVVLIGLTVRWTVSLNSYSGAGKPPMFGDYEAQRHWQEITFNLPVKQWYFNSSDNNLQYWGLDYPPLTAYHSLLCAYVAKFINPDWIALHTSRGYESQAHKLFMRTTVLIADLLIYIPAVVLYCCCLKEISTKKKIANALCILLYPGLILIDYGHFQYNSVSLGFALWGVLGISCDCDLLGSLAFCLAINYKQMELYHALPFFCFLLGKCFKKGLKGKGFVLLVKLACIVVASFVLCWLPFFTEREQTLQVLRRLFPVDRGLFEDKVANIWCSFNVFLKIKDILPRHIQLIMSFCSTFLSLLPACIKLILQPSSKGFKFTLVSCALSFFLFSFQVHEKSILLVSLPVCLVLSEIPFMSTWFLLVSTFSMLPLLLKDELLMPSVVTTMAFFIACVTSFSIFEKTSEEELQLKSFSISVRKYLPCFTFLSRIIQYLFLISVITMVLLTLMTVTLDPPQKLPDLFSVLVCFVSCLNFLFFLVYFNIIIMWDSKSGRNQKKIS
UniProt P30566: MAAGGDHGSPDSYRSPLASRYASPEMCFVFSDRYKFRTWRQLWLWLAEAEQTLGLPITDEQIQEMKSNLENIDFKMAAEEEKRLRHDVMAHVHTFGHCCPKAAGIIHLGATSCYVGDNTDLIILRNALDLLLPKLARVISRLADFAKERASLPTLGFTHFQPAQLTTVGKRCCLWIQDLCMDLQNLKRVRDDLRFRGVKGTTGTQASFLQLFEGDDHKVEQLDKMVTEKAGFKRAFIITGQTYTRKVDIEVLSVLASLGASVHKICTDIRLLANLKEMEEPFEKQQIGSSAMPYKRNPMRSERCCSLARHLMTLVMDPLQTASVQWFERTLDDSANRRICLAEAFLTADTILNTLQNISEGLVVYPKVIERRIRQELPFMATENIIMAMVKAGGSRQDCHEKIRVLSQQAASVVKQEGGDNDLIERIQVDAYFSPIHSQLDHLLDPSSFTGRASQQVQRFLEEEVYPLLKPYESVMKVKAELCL
UniProt Q9Y303: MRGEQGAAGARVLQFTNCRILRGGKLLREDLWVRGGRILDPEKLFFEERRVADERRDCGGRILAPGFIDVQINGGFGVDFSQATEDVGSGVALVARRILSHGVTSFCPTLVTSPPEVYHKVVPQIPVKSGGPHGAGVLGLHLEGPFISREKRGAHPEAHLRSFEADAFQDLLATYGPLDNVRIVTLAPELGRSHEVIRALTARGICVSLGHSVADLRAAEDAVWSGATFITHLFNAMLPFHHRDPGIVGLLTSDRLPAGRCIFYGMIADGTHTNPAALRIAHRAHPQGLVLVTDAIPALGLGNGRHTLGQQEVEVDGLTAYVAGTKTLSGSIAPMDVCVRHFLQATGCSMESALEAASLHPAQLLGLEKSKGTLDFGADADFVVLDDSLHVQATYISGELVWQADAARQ
UniProt Q53H12: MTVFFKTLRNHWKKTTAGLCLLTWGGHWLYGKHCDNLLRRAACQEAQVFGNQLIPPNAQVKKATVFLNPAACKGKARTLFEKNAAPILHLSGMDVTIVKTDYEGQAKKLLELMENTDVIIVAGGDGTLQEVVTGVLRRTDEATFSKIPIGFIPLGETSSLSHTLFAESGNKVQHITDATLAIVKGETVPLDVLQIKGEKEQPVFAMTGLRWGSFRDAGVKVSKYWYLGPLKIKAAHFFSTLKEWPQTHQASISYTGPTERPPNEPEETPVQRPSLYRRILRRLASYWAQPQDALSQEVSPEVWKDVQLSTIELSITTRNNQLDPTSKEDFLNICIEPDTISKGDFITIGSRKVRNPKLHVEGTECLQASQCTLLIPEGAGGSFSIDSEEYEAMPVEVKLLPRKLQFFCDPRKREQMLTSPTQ
UniProt Q9BVK2: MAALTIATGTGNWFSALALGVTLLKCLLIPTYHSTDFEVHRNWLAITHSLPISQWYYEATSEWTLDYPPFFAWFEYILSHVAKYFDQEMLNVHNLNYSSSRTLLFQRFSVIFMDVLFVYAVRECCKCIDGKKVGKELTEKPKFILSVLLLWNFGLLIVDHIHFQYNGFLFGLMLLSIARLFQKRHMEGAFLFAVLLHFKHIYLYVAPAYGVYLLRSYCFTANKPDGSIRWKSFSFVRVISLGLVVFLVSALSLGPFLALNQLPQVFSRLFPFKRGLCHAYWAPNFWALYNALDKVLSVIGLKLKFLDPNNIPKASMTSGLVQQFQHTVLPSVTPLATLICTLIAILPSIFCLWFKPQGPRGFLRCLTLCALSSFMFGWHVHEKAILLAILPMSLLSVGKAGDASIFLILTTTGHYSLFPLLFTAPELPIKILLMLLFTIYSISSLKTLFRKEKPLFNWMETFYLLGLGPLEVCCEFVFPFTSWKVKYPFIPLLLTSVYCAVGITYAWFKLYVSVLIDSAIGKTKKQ
UniProt Q8IZ83: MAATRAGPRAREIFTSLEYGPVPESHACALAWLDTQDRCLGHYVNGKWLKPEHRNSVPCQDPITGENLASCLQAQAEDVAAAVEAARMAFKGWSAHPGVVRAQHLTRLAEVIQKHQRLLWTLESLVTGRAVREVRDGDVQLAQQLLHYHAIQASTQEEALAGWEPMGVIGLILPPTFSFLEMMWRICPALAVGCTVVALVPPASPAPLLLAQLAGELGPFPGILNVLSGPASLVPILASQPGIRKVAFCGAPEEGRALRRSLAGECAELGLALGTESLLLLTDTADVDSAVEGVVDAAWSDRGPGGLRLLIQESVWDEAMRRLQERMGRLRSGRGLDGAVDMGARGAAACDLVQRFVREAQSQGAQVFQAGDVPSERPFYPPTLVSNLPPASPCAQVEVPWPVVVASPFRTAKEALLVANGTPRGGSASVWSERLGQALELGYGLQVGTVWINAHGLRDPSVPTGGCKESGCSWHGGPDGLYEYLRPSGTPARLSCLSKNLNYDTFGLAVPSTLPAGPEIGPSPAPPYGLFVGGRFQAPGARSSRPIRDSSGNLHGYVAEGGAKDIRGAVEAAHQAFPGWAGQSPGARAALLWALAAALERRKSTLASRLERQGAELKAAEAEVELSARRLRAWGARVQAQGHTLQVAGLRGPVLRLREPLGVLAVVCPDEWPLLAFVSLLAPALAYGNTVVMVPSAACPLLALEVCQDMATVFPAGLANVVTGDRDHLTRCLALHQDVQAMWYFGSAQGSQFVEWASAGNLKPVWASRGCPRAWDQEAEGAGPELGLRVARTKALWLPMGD
UniProt Q9UM13, whole entry, looked up: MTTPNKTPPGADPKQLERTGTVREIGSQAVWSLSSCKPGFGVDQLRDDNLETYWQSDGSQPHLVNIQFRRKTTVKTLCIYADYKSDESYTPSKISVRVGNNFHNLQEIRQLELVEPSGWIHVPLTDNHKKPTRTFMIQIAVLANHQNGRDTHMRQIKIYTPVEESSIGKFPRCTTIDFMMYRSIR
UniProt Q53H80, whole entry, looked up: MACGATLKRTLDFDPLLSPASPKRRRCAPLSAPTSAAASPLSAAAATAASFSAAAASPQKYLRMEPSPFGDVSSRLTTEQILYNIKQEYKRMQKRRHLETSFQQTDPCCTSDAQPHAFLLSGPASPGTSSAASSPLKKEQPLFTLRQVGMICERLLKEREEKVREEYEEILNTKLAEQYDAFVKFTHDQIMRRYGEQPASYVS
UniProt Q9NP73: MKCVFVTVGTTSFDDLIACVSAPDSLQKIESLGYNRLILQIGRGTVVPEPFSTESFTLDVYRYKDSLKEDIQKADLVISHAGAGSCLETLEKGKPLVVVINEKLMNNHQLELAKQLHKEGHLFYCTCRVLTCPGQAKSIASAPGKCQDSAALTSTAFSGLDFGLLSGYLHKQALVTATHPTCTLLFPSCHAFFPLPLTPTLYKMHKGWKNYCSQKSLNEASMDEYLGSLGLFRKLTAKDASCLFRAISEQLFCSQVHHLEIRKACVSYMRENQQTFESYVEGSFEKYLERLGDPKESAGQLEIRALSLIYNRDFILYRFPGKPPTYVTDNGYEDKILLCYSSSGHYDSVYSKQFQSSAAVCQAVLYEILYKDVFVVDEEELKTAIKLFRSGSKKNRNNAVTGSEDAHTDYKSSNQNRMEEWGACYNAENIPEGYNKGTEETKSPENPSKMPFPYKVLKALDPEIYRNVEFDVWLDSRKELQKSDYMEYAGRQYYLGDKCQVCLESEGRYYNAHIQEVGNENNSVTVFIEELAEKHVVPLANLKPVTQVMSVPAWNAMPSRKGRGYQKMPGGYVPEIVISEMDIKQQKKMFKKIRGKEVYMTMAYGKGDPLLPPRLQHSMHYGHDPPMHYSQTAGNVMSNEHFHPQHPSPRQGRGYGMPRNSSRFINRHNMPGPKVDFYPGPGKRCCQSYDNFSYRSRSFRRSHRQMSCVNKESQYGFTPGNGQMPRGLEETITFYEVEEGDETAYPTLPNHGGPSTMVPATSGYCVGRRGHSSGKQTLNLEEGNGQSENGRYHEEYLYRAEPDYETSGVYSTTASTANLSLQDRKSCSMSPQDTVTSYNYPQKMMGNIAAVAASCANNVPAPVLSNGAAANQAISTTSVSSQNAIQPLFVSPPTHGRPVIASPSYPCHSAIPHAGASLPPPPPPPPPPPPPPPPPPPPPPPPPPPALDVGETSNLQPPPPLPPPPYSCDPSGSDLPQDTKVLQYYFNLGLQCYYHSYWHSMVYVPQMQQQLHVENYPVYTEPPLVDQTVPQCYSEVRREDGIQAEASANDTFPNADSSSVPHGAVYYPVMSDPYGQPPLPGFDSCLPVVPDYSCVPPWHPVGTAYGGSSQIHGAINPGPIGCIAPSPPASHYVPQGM
UniProt P30038: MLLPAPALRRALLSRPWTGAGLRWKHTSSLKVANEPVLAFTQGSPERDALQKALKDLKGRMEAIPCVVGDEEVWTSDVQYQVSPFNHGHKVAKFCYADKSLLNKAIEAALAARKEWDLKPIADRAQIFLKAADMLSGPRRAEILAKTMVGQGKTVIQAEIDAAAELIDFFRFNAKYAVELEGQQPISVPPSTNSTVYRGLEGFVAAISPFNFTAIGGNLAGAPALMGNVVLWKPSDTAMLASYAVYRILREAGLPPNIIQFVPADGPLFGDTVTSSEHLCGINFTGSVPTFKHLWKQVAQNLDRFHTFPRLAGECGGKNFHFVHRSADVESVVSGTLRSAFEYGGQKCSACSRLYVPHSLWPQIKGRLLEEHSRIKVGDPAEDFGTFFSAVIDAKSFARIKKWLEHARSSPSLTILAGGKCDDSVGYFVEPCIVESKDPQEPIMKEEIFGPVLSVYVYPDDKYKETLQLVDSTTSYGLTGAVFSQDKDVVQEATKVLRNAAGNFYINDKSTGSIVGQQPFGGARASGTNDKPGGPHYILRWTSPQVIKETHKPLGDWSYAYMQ
UniProt Q12904: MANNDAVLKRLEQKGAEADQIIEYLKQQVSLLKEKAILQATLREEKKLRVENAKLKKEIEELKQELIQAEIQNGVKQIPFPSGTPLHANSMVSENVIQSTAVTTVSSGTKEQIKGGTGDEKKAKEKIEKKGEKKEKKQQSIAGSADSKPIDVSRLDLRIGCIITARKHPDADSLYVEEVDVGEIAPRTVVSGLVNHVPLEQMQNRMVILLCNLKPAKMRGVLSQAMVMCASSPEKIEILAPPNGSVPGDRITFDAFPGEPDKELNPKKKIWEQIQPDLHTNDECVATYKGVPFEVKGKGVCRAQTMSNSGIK
UniProt Q3KRA9: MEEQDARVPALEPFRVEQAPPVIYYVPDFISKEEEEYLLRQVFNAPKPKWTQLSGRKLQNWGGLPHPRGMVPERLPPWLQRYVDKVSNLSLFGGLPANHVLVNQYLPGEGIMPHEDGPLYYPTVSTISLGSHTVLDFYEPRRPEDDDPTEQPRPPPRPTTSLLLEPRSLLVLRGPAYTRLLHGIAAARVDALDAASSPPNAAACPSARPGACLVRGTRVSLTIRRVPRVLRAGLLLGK

[2] = compound: NC(=O)c1cnc(N[C@@H]2CCCC[C@@H]2N)nc1Nc1cccc(-n2nccn2)c1
In short: as §1

[3] = compound: NC1(c2ccc(-c3nc4ccn5c(=O)[nH]nc5c4cc3-c3ccccc3)cc2)CCC1
In short: as §1

[4] = compound: NCC(=O)Nc1ccc(-n2nc(C(F)(F)F)cc2-c2ccc3c(ccc4ccccc43)c2)cc1
In short: as §1

entinostat = compound: Nc1ccccc1NC(=O)c1ccc(CNC(=O)OCc2cccnc2)cc1 [entinostat]
In short: as §1

vorinostat = compound: O=C(CCCCCCC(=O)Nc1ccccc1)NO [vorinostat]
In short: as §1

citarinostat = compound: O=C(CCCCCCNC(=O)c1cnc(N(c2ccccc2)c2ccccc2Cl)nc1)NO [citarinostat]
In short: as §1

silmitasertib = compound: O=C(O)c1ccc2c(c1)nc(Nc1cccc(Cl)c1)c1ccncc12 [silmitasertib]
In short: as §1

[5] = compound: O=C1NC(=O)C(c2cnc3ccccn23)=C1c1cn2c3c(cc(F)cc13)CN(C(=O)N1CCCCC1)CC2
In short: as §1

[6] = compound: c1cc(OCCN2CCCCC2)cc(-c2n[nH]c3ccc(-c4nnc[nH]4)cc23)c1
In short: as §1

entospletinib = compound: c1cn2cc(-c3ccc4cn[nH]c4c3)nc(Nc3ccc(N4CCOCC4)cc3)c2n1 [entospletinib]
In short: as §1

Measured: log2 fold change

AMN1 (UniProt Q8IY45)
inactive: [1] 0.038 | [2] 0.021 | [3] -0.082 | [4] 0.219 | entinostat -0.185 | vorinostat 0.204 | citarinostat 0.066 | silmitasertib 0.177 | [5] -0.032 | [6] 0.131 | entospletinib 0.056

AFTPH isoform 9 (UniProt Q6ULP2)
inactive: [1] -0.04 | [2] -0.109 | [3] -0.072 | [4] -0.066 | entinostat 0.037 | vorinostat 0.026 | citarinostat 0.05 | silmitasertib 0 | [5] 0.125 | [6] 0.066 | entospletinib 0.03

ADO (UniProt Q96SZ5)
inactive: [1] 0.007 | [2] 0.023 | [3] 0.005 | [4] 0.009 | entinostat -0.02 | vorinostat -0.021 | citarinostat -0.017 | silmitasertib -0.028 | [5] -0.037 | [6] 0.1 | entospletinib 0.01

AKT1 (UniProt P31749)
inactive: [1] -0.085 | [2] -0.276 | [4] -0.002 | entinostat 0.201 | vorinostat -0.024 | citarinostat 0.138 | silmitasertib 0.004 | [5] 0.1 | [6] 0.027
active: [3] 1.61

ALDOC (UniProt J3QKP5)
inactive: [1] -0.367 | [2] -0.269 | [3] 0.108 | [4] -0.147 | entinostat -0.072 | vorinostat -0.395 | citarinostat -0.35 | silmitasertib 0 | [5] -0.368 | [6] -0.104 | entospletinib 0.409

ALG6 (UniProt Q9Y672)
inactive: [1] -0.005 | [2] -0.028 | [3] -0.201 | [4] -0.02 | entinostat 0.019 | vorinostat 0.017 | citarinostat 0.005 | silmitasertib 0.021 | [5] -0.011 | [6] -0.047 | entospletinib -0.076

ADSL (UniProt P30566)
inactive: [1] 0.039 | [2] 0.035 | [3] 0.027 | [4] 0.018 | entinostat -0.01 | vorinostat -0.044 | citarinostat -0.006 | silmitasertib -0.016 | [5] -0.057 | [6] -0.005 | entospletinib -0.012

ALG9 isoform 3 (UniProt Q9H6U8)
inactive: [1] -0.021 | [2] -0.033 | [3] -0.036 | [4] -0.016 | entinostat 0.044 | vorinostat 0.085 | citarinostat -0.044 | silmitasertib 0.013 | [5] -0.129 | [6] 0.136 | entospletinib -0.06

ALG10B (UniProt Q5I7T1)
inactive: [1] -0.022 | [2] -0.088 | [3] -0.164 | [4] 0.142 | entinostat 0.028 | vorinostat -0.026 | citarinostat -0.032 | silmitasertib 0.041 | [5] 0.065 | [6] -0.123 | entospletinib 0.05

Reprinted at random: two entries already listed
AKT1 (UniProt P31749)
inactive: [1] -0.085 | [2] -0.276 | [4] -0.002 | entinostat 0.201 | vorinostat -0.024 | citarinostat 0.138 | silmitasertib 0.004 | [5] 0.1 | [6] 0.027
active: [3] 1.61

ADSL (UniProt P30566)
inactive: [1] 0.039 | [2] 0.035 | [3] 0.027 | [4] 0.018 | entinostat -0.01 | vorinostat -0.044 | citarinostat -0.006 | silmitasertib -0.016 | [5] -0.057 | [6] -0.005 | entospletinib -0.012

Next results:

ALKBH3 (UniProt Q96Q83)
inactive: [1] -0.011 | [2] -0.023 | [3] -0.018 | [4] 0.112 | entinostat -0.039 | vorinostat -0.02 | citarinostat 0.014 | silmitasertib -0.006 | [5] -0.07 | [6] 0.021 | entospletinib 0.016

AMDHD2 isoform 3 (UniProt Q9Y303)
inactive: [1] 0.011 | [2] -0.037 | [3] 0.031 | [4] 0.005 | entinostat -0.03 | vorinostat 0.012 | citarinostat 0.017 | silmitasertib -0.021 | [5] -0.059 | [6] -0.017 | entospletinib -0.004

AGK (UniProt Q53H12)
inactive: [1] -0.026 | [2] -0.031 | [3] -0.047 | [4] -0.005 | entinostat -0.026 | vorinostat 0.044 | citarinostat 0.028 | silmitasertib 0.01 | [5] -0.046 | [6] 0.005 | entospletinib 0.017

ALG8 (UniProt Q9BVK2)
inactive: [1] -0.144 | [2] -0.102 | [3] -0.153 | [4] -0.084 | entinostat 0.078 | vorinostat 0.16 | citarinostat 0.013 | silmitasertib 0.028 | [5] -0.034 | [6] -0.109 | entospletinib 0.056

ALDH16A1 (UniProt Q8IZ83)
inactive: [1] 0.006 | [2] -0.032 | [3] -0.045 | [4] -0.042 | entinostat -0.014 | vorinostat 0.01 | citarinostat 0.032 | silmitasertib -0.026 | [5] -0.067 | [6] 0.019 | entospletinib -0.022

AK4 (UniProt P27144)
inactive: [1] -0.025 | [2] -0.011 | [3] -0.054 | [4] -0.097 | entinostat 0.056 | vorinostat -0.009 | citarinostat 0.03 | silmitasertib 0.006 | [5] -0.039 | [6] -0.04 | entospletinib -0.002

ANAPC10 (UniProt Q9UM13)
inactive: [1] 0.061 | [2] -0.005 | [3] -0.037 | [4] 0.042 | entinostat 0.043 | vorinostat 0.094 | citarinostat 0.237 | silmitasertib -0.026 | [5] -0.048 | [6] 0.031 | entospletinib -0.158

AKIRIN2 (UniProt Q53H80)
inactive: [1] 0.062 | [2] -0.055 | [3] -0.132 | [4] -0.087 | entinostat 0.044 | vorinostat 0.035 | citarinostat 0.015 | silmitasertib 0.026 | [5] 0.375 | [6] 0.019 | entospletinib -0.092

AGTRAP (UniProt Q6RW13)
inactive: [1] -0.043 | [2] -0.006 | [3] 0.012 | [4] 0.002 | entinostat -0.041 | vorinostat -0.021 | citarinostat 0.063 | silmitasertib 0.068 | [5] 0.002 | [6] -0.034 | entospletinib 0.05

AGO3 (UniProt Q9H9G7)
inactive: [1] 0.03 | [2] -0.137 | [3] 0.375 | [4] -0.016 | entinostat -0.018 | vorinostat 0.032 | citarinostat -0.086 | silmitasertib 0.068 | [5] 0.106 | [6] -0.11 | entospletinib 0.093

ALG13 (UniProt Q9NP73)
inactive: [1] 0.081 | [2] -0.029 | [3] -0.114 | [4] -0.103 | entinostat 0.092 | vorinostat 0.001 | citarinostat 0.07 | silmitasertib -0.012 | [5] -0.085 | [6] -0.097 | entospletinib -0.03

ALDH4A1 (UniProt P30038)
inactive: [1] -0.047 | [2] -0.002 | [3] -0.039 | [4] -0.026 | entinostat -0.024 | vorinostat 0.001 | citarinostat 0.013 | silmitasertib -0.038 | [5] -0.016 | [6] -0.036 | entospletinib 0.017

AK3 (UniProt Q9UIJ7)
inactive: [1] -0.009 | [2] -0.056 | [3] -0.033 | [4] -0.038 | entinostat -0.021 | vorinostat -0.023 | citarinostat 0.02 | silmitasertib 0.017 | [5] -0.038 | [6] -0.015 | entospletinib 0.025

AK2 isoform 2 (UniProt P54819)
inactive: [1] 0.009 | [2] 0.004 | [3] 0.072 | [4] 0.014 | entinostat -0.025 | vorinostat -0.016 | citarinostat 0.019 | silmitasertib -0.04 | [5] -0.022 | [6] 0.01 | entospletinib 0.04

AIMP1 isoform 2 (UniProt Q12904)
inactive: [1] 0.158 | [2] 0.02 | [3] 0.294 | [4] 0.099 | entinostat 0.016 | vorinostat 0.064 | citarinostat -0.067 | silmitasertib 0.297 | [5] 0.167 | [6] -0.164 | entospletinib 0.119

ALKBH6 isoform 2 (UniProt Q3KRA9)
inactive: [1] -0.061 | [2] -0.038 | [3] -0.024 | [4] 0.067 | entinostat -0.01 | vorinostat 0.002 | citarinostat -0.067 | silmitasertib 0.02 | [5] -0.057 | [6] 0.028 | entospletinib -0.152

AGO4 (UniProt Q9HCK5)
inactive: [1] 0.223 | [2] 0.007 | [3] 0.037 | [4] 0.091 | entinostat -0.069 | vorinostat 0.082 | citarinostat 0.046 | silmitasertib 0.028 | [5] 0.073 | [6] -0.152 | entospletinib 0.027

AHNAK (UniProt Q09666)
inactive: [1] -0.026 | [2] 0.055 | [3] 0.04 | [4] 0.001 | entinostat -0.069 | vorinostat -0.058 | citarinostat -0.003 | silmitasertib 0.018 | [5] -0.007 | [6] -0.016 | entospletinib 0.01

— the supplement of paper PMC10849652
